# Reference: patent publication US20160298165A1 (priority 2013, published 2016)
# At least one compound was matched to its structure with a doubt left.
# Tests used:
# [1] = tested on: M. tuberculosis H37Rv; assay type: cell-based, Mycobacterium tuberculosis
# [2] = tested on: M. tuberculosis mc26230 (H37Rv ΔRD1 ΔpanCD); assay type: cell-based; conditions: after 24 h
Structure (SMILES),effect of DFO on the effect of cysteine in INH/Cyst or RIF/Cyst combination [1],change in ROS level compared to untreated sample [2]
"CC(=O)N(O)CCCCCNC(=O)CCC(=O)N(O)CCCCCNC(=O)CCC(=O)N(O)CCCCCN [DFO, deferoxamine]",abolished,
"CO[C@H]1/C=C/O[C@@]2(C)Oc3c(C)c(O)c4c(O)c(c(/C=N/N5CCN(C)CC5)c(O)c4c3C2=O)NC(=O)/C(C)=C\C=C\[C@H](C)[C@H](O)[C@@H](C)[C@@H](O)[C@@H](C)[C@H](OC(C)=O)[C@@H]1C [RIF, Rifampicin]",,no change
